Measured values as given in PMC12292949.
Results are given in words; binding and its absence hold for the method and conditions named. Binding seen in cells or lysates may run through a third protein. Some results given as binding are weak or reduced against the parent protein; the word gives no strength. Blank lines part the entries; values can stand above or below the molecule they belong to.

Sequences of proteins named here, by UniProt entry; tags and fusion partners are left off.
UniProt Q92922: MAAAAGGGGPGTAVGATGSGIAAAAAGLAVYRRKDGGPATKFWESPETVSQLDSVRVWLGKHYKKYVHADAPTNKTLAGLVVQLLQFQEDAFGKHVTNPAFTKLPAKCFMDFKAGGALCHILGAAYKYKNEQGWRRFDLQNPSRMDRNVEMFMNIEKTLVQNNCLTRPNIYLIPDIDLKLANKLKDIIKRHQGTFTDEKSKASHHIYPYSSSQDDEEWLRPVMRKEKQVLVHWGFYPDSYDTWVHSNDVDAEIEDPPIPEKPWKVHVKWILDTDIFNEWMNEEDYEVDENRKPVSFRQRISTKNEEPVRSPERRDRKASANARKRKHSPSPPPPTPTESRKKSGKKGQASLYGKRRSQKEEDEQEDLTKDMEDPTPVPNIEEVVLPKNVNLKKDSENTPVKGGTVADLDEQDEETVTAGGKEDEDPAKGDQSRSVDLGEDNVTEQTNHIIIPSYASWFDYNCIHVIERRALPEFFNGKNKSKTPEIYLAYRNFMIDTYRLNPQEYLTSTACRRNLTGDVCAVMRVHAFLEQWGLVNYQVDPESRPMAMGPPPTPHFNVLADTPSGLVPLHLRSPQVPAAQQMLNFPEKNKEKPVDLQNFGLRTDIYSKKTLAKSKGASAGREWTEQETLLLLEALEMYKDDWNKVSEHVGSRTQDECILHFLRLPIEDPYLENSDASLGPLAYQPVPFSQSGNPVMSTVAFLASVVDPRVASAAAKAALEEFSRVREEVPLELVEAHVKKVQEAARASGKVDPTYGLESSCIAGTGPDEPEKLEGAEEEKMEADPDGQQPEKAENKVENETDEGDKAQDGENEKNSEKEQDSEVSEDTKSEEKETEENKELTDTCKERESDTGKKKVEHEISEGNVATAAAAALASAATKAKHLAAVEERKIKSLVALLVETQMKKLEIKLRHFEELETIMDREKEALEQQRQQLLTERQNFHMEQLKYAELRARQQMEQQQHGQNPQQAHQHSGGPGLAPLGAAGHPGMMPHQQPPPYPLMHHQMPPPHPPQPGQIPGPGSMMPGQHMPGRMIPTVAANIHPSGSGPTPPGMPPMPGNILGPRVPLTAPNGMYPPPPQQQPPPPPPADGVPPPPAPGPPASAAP
UniProt Q969G3: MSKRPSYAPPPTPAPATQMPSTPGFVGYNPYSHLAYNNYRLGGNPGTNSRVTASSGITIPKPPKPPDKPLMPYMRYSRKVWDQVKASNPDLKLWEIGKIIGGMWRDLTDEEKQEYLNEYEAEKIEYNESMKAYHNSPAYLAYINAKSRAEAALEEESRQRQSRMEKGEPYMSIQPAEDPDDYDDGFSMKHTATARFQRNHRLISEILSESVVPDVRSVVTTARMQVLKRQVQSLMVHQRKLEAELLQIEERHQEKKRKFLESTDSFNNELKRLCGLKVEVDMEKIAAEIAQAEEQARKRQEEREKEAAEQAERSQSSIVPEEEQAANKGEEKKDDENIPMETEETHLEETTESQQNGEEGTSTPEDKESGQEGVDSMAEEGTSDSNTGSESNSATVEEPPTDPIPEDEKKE

Assays:
[1] = biological target: T1, H2A.B N-terminal peptide asymmetrically dimethylated at R7 (human); test: pull-down; biotinylated unmodified or R7me2a H2A.B N-terminal peptides on streptavidin beads, nuclear extracts from L428 cells, Western blot; only the target purified
T1 sequence (peptide, asymmetric dimethylarginine (ADMA) at R7; C-terminally biotinylated): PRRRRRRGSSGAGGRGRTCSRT

[2] = biological target: T2, unmodified H2A.B N-terminal peptide (human); test: as above
T2 sequence (peptide, C-terminally biotinylated): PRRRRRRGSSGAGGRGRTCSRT

binding [1]: binds | binding [2]: binds
Molecule: SMARCC1 (endogenous) (from UniProt Q92922 1-1105)

binding [1]: binds | binding [2]: binds
Molecule: SMARCE1 (endogenous) (from UniProt Q969G3 1-411)

binding [2]: binds
B1: TRA2B (endogenous) (protein, UniProt P62995 1-288)
chain: MSDSGEQNYGERESRSASRSGSAHGSGKSARHTPARSRSKEDSRRSRSKSRSRSESRSRSRRSSRRHYTRSRSRSRSHRRSRSRSYSRDYRRRHSHSHSPMSTRRRHVGNRANPDPNCCLGVFGLSLYTTERDLREVFSKYGPIADVSIVYDQQSRRSRGFAFVYFENVDDAKEAKERANGMELDGRRIRVDFSITKRPHTPTPGIYMGRPTYGSSRRRDYYDRGYDRGYDDRDYYSRSYRGGGGGGGGWRAAQDRDQIYRRRSPSPYYSRGGYRSRSRSRSYSPRRY
